PubChem BioAssay AID248 (DTP/NCI, 2004)
The list does not hold the whole screen: it gathers tests that were run many times, whatever their T/C, doses with no T/C, and many T/C values between a quarter and a half above the control. Further doses and runs are listed elsewhere. T/C is the treated group as % of the vehicle group. Some entries give survivors of the animals treated and no T/C: the source files T/C as zero there, which appears to mark a toxic dose or a test without result, not a measured value. Some doses without a T/C left all or most animals alive at the check, yet need not have been tolerated: the source hardly ever lists a survival T/C far under the control, and the zero likely stands for such cases as well. Counts of survivors are from the toxicity check (mostly the fifth day) where no day follows; animals may have died later. Schedule codes are those of the source, taken here to give the interval after Q, in days (D) or hours (H), and the number of doses after X. Some entries were tested several times; their values stand side by side, smallest first. Some schedule codes hold Z or #, which are not explained here. Where survival is the endpoint, this PubChem deposit counts one and a half times the control or more as active, and values a quarter to a half above the control carry no call in these data; other NCI protocols may use other cut-offs. Additions like (4×) count equal records among those shown. Some T/C values are followed by the survivors on the day toxicity was checked, most often the fifth; where none is given, no animal had died by that day.

Tested on: L1210 leukemia ip in BDF1 mice, survival T/C
Assay: NCI In Vivo Anticancer Drug Screen. Data for tumor model L1210 Leukemia (intraperitoneal) in B6D2F1 (BDF1) mice
Settings: T/C endpoint: mean survival time, higher T/C = longer survival
[1] = dose: 400.0 mg/kg/injection, schedule: Q01DX009 (ip), vehicle: saline with Tween-80
[2] = dose: 200.0 mg/kg/injection, schedule: Q04DX003 (ip), vehicle: saline
[3] = dose: 400.0 mg/kg/injection, schedule: Q04DX003 (ip), vehicle: saline
[4] = dose: 200.0 mg/kg/injection, schedule: Q04DX002 (ip), vehicle: Klucel (hydroxypropylcellulose) (HPC)
[5] = dose: 400.0 mg/kg/injection, schedule: Q01DX009 (ip), vehicle: Klucel (hydroxypropylcellulose) (HPC)
[6] = dose: 200.0 mg/kg/injection, schedule: Q01DX001 (ip), vehicle: saline
[7] = dose: 400.0 mg/kg/injection, schedule: Q01DX001 (ip), vehicle: saline
[8] = dose: 100.0 mg/kg/injection, schedule: Q01DX009 (ip), vehicle: saline

CCN=C(c1ccc(NC(=O)c2ccc(C(=O)Nc3ccc(C(=NCC)N(CC)C(=O)NCCCl)cc3)cc2)cc1)N(CC)C(=O)NCCCl
survivor count (dose: 15.0 mg/kg/injection, schedule: Q01DX015 (ip), vehicle: methylcellulose (MC)): 1 of 6
survivor count (dose: 30.0 mg/kg/injection, schedule: Q01DX015 (ip), vehicle: methylcellulose (MC)): 0 of 6
survivor count (dose: 62.0 mg/kg/injection, schedule: Q01DX015 (ip), vehicle: methylcellulose (MC)): 0 of 6
survivor count (dose: 125.0 mg/kg/injection, schedule: Q01DX015 (ip), vehicle: methylcellulose (MC)): 0 of 6
survivor count (dose: 250.0 mg/kg/injection, schedule: Q01DX015 (ip), vehicle: methylcellulose (MC)): 0 of 6
survivor count (dose: 500.0 mg/kg/injection, schedule: Q01DX015 (ip), vehicle: methylcellulose (MC)): 0 of 6

CC(C)N(CC#N)C(C)C
survivor count (dose: 1.0 mg/kg/injection, schedule: Q01DX009 (ip), vehicle: saline with Tween-80): 0 of 6

Cc1ccc(S(=O)(=O)COS(=O)(=O)C(F)(F)F)cc1
survivor count (dose: 400.0 mg/kg/injection, schedule: Q04DX003 (ip), vehicle: Klucel (hydroxypropylcellulose) (HPC)): 4 of 6

CCN(CC)CCNc1ncnc2c1cnn2-c1ccc(Cl)cc1
survivor count [1]: 1 of 6

CNCCN(C)Cc1ccccc1
survivor count [2]: 1 of 6
survivor count [3]: 0 of 6

CCCSCC(C)C
survivor count [1]: 1 of 6

CN1CCN=C1c1ccc(NC(=O)c2ccc(C(=O)Nc3ccc(C4=NCCN4C)cc3)c(Cl)c2)cc1
survivor count (dose: 12.0 mg/kg/injection, schedule: Q01DX Z (ip), vehicle: water): 0 of 6

CCOC(=O)NC(CCN(C)C)(c1cccc2ccccc12)C(C)C (configuration not stated)
survivor count (dose: 200.0 mg/kg/injection, schedule: Q01DX009 (ip), vehicle: Klucel (hydroxypropylcellulose) (HPC)): 0 of 6
survivor count [4]: 2 of 3
survivor count [5]: 0 of 6

O=Nc1c(-c2c[nH]c3ccccc23)[nH]c2ccccc12
survivor count [6]: 0 of 4
survivor count [7]: 0 of 4

[Cl][Nd]([Cl])[Cl]
survivor count [8]: 6 of 6
survivor count [3]: 3 of 6

Cc1cc(C)c(C(=O)CCN(C)C)c(C)c1
survivor count [8]: 2 of 6
survivor count [2]: 0 of 6
survivor count [3]: 0 of 6

CS(=O)(=O)N(CC(=O)O)Cc1cccc(Br)c1
survivor count (dose: 400.0 mg/kg/injection, schedule: Q01DX005 (ip), vehicle: other): 1 of 3

O=C(COCC(=O)N/N=C/c1ccc(Cl)c(Cl)c1)N/N=C/c1ccc(Cl)c(Cl)c1
survivor count (dose: 50.0 mg/kg/injection, schedule: Q01DX009 (ip), vehicle: saline with Tween-80): 6 of 6
survivor count (dose: 100.0 mg/kg/injection, schedule: Q01DX009 (ip), vehicle: saline with Tween-80): 6 of 6
survivor count (dose: 100.0 mg/kg/injection, schedule: Q04DX003 (ip), vehicle: saline with Tween-80): 6 of 6
survivor count (dose: 200.0 mg/kg/injection, schedule: Q01DX009 (ip), vehicle: saline with Tween-80): 6 of 6
survivor count (dose: 400.0 mg/kg/injection, schedule: Q04DX003 (ip), vehicle: saline with Tween-80): 6 of 6

c1ccc2c(c1)[nH]c1c2cc[n+]2cc3c(cc12)CCCC3
survivor count (dose: 75.0 mg/kg/injection, schedule: Q01DX001 (ip), vehicle: saline): 0 of 6
survivor count (dose: 150.0 mg/kg/injection, schedule: Q01DX001 (ip), vehicle: saline): 0 of 6
survivor count (dose: 300.0 mg/kg/injection, schedule: Q01DX001 (ip), vehicle: saline): 0 of 6

C=CCNc1ccnc(SC)n1
survivor count (dose: 400.0 mg/kg/injection, schedule: Q01DX001 (ip), vehicle: gum acacia): 3 of 6

CCN(CC)CCOc1cccc(Oc2ccccc2)c1
survivor count (dose: 200.0 mg/kg/injection, schedule: Q01DX009 (ip), vehicle: saline): 0 of 6
survivor count [2]: 4 of 6
survivor count [3]: 0 of 6

Cc1ccc(S(=O)(=O)N/N=C2/C3CC4C(C3)C24)cc1
survivor count [8]: 6 of 6
survivor count (dose: 375.0 mg/kg/injection, schedule: Q01DX009 (ip), vehicle: saline): 6 of 6

CN(C)CC1CC(=O)C(CN(C)C)CC1=O (configuration not stated)
survivor count (dose: 80.0 mg/kg/injection, schedule: Q01DX001 (ip), vehicle: saline): 1 of 6

O=C(Nc1ccc(F)cc1)Oc1ccc2ccccc2c1
survivor count (dose: 400.0 mg/kg/injection, schedule: Q04DX002 (ip), vehicle: carboxymethylcellulose (CMC)): 3 of 3

CCCCOC(=O)C(N)Cc1ccc(OC)c(N(CCCl)CCCl)c1 (configuration not stated)
survivor count (dose: 1.2 mg/kg/injection, schedule: Q01DX009 (ip), vehicle: saline): 5 of 6
T/C (dose: 3.0 mg/kg/injection, schedule: Q01DX001 (ip), vehicle: saline): 131 and 138 % of control
T/C (dose: 4.0 mg/kg/injection, schedule: Q01DX001 (ip), vehicle: saline): 126 % of control
survivor count (dose: 4.5 mg/kg/injection, schedule: Q01DX009 (ip), vehicle: saline): 6 of 6
T/C (dose: 6.0 mg/kg/injection, schedule: Q01DX001 (ip), vehicle: saline): 136 % of control [5 of 6 alive]
T/C (dose: 9.0 mg/kg/injection, schedule: Q01DX001 (ip), vehicle: saline): 141 % of control
survivor count (dose: 12.0 mg/kg/injection, schedule: Q01DX001 (ip), vehicle: saline): 3 of 6
survivor count (dose: 12.5 mg/kg/injection, schedule: Q01DX001 (ip), vehicle: saline): 5 of 6
T/C (dose: 24.0 mg/kg/injection, schedule: Q01DX001 (ip), vehicle: saline): 145 % of control
survivor count (dose: 24.0 mg/kg/injection, schedule: Q01DX009 (ip), vehicle: saline): 2 of 6
survivor count (dose: 25.0 mg/kg/injection, schedule: Q01DX001 (ip), vehicle: saline): 2 of 6
survivor count (dose: 36.0 mg/kg/injection, schedule: Q01DX009 (ip), vehicle: saline): 0 of 6
survivor count (dose: 48.0 mg/kg/injection, schedule: Q01DX001 (ip), vehicle: saline): 3 of 6
survivor count (dose: 50.0 mg/kg/injection, schedule: Q01DX001 (ip), vehicle: saline): 0 of 6
survivor count (dose: 96.0 mg/kg/injection, schedule: Q01DX001 (ip), vehicle: saline): 0 of 6
survivor count (dose: 100.0 mg/kg/injection, schedule: Q01DX001 (ip), vehicle: saline): 0 of 6
survivor count [6]: 0 of 6
survivor count [7]: 0 of 6

NC(CCC(=O)NC(CSC(c1ccccc1)(c1ccccc1)c1ccc(F)cc1)C(=O)NCC(=O)O)C(=O)O (configuration not stated)
T/C (dose: 100.0 mg/kg/injection, schedule: Q01DX009 (ip), vehicle: other): 127 % of control
T/C [8]: 127 % of control
T/C (dose: 200.0 mg/kg/injection, schedule: Q01DX009 (ip), vehicle: other): 130 % of control
survivor count (dose: 400.0 mg/kg/injection, schedule: Q01DX009 (ip), vehicle: other): 5 of 6

NC=O
survivor count (dose: 500.0 mg/kg/injection, schedule: Q01DX009 (ip), vehicle: saline): 6 of 6

CC(=O)NCCCOc1ccc([N+](=O)[O-])cc1Cl
T/C (dose: 100.0 mg/kg/injection, schedule: Q04DX002 (ip), vehicle: Klucel (hydroxypropylcellulose) (HPC)): 99 (2×), 100, 105 % of control
T/C [4]: 105, 108, 111, 125 % of control
survivor count (dose: 400.0 mg/kg/injection, schedule: Q01DX001 (ip), vehicle: Klucel (hydroxypropylcellulose) (HPC)): 1 of 6
survivor count [5]: 1 of 3 and 4 of 6
survivor count (dose: 400.0 mg/kg/injection, schedule: Q04DX002 (ip), vehicle: Klucel (hydroxypropylcellulose) (HPC)): 1 of 6, 1 of 3, 3 of 6

CCCCCCCCCCCC(=O)N(C)CC(=O)O
survivor count [6]: 3 of 6
survivor count [7]: 0 of 6

CCc1ccc(C2=C(Cl)C(=O)C(c3ccc(CC)cc3)=C(Cl)C2=O)cc1
survivor count (dose: 200.0 mg/kg/injection, schedule: Q01DX001 (ip), vehicle: carboxymethylcellulose (CMC)): 1 of 3
survivor count (dose: 400.0 mg/kg/injection, schedule: Q01DX001 (ip), vehicle: carboxymethylcellulose (CMC)): 0 of 4
